Reference: publication PMC4691244
These are yes or no findings as the source states them, for the method shown. In cells and extracts the contact can be indirect. Some entries that bind do so weakly or less than the wild type. For some of these results: Tags and fused reporters may be left off the sequences shown.

Chains of the proteins cited; added tags and fusions are not shown.
UniProt Q9NQT5: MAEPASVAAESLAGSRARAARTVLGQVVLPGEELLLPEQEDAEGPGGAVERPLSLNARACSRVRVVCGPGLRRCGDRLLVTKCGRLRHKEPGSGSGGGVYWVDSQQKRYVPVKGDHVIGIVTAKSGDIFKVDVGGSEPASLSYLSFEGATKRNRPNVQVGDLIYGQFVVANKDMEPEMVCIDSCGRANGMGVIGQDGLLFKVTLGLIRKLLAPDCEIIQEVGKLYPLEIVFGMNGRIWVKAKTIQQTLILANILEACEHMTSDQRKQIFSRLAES
UniProt Q9NPD3: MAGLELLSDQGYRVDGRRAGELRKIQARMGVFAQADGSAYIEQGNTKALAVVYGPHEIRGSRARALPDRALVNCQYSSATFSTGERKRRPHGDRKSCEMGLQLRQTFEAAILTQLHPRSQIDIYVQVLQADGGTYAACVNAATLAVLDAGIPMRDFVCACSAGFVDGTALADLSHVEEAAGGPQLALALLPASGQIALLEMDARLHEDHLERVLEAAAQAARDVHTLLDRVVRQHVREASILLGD

Experiments:
Test in all cases: co-IP; anti-T7 or anti-FLAG immunoprecipitation of overexpressed T7-DGCR8, FLAG-DGCR8, FLAG-Drosha (and T7-DGCR8 dRBD1&2 mut) from transfected HEK293T cells; western blot of endogenous partners; in the presence or absence of RNase A (Figure 1C)
FLAG-Drosha = target: T1, FLAG-Drosha (UniProt Q9NRR4)
T1 sequence: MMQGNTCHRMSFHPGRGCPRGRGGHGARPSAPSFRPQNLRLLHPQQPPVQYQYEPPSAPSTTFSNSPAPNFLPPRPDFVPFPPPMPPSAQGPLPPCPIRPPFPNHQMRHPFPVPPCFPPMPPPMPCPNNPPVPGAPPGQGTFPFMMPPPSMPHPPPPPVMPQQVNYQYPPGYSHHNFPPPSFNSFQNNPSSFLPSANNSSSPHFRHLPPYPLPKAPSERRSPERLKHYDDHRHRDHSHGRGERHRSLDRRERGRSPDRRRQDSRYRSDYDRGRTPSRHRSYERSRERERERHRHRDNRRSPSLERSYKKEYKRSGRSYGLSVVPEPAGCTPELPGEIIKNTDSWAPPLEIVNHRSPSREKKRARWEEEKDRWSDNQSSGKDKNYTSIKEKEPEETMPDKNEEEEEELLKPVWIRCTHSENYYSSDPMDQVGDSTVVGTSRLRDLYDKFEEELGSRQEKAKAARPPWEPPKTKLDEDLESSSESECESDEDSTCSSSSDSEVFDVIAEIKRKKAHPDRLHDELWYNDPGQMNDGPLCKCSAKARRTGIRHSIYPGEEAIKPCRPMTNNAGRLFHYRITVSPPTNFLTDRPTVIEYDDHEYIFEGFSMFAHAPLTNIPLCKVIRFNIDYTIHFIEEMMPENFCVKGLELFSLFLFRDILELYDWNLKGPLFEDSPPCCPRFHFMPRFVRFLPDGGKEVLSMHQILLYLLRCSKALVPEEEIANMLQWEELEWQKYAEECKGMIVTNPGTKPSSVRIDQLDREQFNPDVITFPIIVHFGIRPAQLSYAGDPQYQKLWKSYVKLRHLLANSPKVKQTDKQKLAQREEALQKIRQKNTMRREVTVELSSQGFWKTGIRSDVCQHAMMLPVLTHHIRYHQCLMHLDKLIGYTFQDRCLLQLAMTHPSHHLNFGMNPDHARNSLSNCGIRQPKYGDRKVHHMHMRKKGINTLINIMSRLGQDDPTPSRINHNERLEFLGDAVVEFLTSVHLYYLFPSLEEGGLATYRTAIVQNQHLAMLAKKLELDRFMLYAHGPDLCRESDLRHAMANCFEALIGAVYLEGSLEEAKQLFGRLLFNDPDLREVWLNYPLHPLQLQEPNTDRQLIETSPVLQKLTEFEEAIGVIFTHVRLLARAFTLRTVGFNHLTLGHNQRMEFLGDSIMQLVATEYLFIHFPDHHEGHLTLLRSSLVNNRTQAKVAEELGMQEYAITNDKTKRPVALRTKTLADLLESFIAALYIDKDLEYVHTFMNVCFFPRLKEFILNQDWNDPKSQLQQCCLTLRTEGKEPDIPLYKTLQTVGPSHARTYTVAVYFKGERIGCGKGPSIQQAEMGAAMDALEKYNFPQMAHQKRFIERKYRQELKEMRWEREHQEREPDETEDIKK

FLAG-DGCR8 (human) = target: T2, FLAG-DGCR8 (human) (UniProt Q8WYQ5)
T2 sequence: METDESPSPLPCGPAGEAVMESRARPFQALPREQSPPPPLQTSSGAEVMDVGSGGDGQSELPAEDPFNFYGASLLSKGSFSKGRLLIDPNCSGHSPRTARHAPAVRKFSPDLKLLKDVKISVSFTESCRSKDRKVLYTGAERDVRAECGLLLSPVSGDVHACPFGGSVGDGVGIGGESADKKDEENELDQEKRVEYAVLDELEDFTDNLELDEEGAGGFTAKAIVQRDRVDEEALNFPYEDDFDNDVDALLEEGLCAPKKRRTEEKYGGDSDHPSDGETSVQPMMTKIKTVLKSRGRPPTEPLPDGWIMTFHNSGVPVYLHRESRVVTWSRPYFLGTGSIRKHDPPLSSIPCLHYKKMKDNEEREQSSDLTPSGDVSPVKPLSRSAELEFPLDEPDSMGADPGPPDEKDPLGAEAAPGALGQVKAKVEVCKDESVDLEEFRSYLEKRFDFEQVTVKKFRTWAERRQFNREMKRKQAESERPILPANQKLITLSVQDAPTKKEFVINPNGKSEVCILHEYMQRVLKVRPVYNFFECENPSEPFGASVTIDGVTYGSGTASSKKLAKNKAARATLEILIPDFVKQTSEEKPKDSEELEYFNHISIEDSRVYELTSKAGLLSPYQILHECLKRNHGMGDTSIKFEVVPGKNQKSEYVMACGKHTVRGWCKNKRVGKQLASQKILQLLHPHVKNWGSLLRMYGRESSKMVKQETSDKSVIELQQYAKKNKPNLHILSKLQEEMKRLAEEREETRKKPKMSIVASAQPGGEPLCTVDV

T7-DGCR8 (human) = target: T3, T7-DGCR8 (human) (UniProt Q8WYQ5)
T3 sequence: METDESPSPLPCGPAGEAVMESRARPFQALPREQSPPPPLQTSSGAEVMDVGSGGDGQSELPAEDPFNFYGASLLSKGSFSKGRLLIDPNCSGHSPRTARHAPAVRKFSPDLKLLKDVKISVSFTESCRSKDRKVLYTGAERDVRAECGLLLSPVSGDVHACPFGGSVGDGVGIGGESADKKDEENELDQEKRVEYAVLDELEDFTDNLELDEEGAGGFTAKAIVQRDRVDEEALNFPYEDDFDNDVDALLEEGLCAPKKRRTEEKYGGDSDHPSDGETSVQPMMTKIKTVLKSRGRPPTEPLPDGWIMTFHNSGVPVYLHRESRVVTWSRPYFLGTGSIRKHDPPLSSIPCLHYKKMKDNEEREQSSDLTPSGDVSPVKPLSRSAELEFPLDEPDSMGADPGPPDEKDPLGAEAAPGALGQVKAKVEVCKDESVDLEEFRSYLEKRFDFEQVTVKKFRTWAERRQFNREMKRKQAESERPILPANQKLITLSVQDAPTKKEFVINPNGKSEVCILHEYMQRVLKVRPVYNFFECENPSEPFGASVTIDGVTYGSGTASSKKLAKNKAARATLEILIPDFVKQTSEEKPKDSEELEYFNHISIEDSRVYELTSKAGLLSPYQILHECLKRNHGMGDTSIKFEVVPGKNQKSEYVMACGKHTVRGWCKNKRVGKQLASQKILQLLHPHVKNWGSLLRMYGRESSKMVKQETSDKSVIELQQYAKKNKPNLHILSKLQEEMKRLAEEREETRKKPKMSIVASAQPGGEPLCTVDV

Molecule: hRRP40 (from UniProt Q9NQT5 1-275)
- binding (FLAG-Drosha): no binding
- binding (FLAG-DGCR8 (human)): binds
- binding (T7-DGCR8 (human)): binds

Molecule: hRRP41 (from UniProt Q9NPD3 1-245)
- binding (FLAG-Drosha): no binding
- binding (FLAG-DGCR8 (human)): binds
- binding (T7-DGCR8 (human)): binds

B1: hDIS3 (enzyme, UniProt Q9Y2L1 1-958)
chain: MLKSKTFLKKTRAGGVMKIVREHYLRDDIGCGAPGCAACGGAHEGPALEPQPQDPASSVCPQPHYLLPDTNVLLHQIDVLEDPAIRNVIVLQTVLQEVRNRSAPVYKRIRDVTNNQEKHFYTFTNEHHRETYVEQEQGENANDRNDRAIRVAAKWYNEHLKKMSADNQLQVIFITNDRRNKEKAIEEGIPAFTCEEYVKSLTANPELIDRLACLSEEGNEIESGKIIFSEHLPLSKLQQGIKSGTYLQGTFRASRENYLEATVWIHGDNEENKEIILQGLKHLNRAVHEDIVAVELLPKSQWVAPSSVVLHDEGQNEEDVEKEEETERMLKTAVSEKMLKPTGRVVGIIKRNWRPYCGMLSKSDIKESRRHLFTPADKRIPRIRIETRQASTLEGRRIIVAIDGWPRNSRYPNGHFVRNLGDVGEKETETEVLLLEHDVPHQPFSQAVLSFLPKMPWSITEKDMKNREDLRHLCICSVDPPGCTDIDDALHCRELENGNLEVGVHIADVSHFIRPGNALDQESARRGTTVYLCEKRIDMVPELLSSNLCSLKCDVDRLAFSCIWEMNHNAEILKTKFTKSVINSKASLTYAEAQLRIDSANMNDDITTSLRGLNKLAKILKKRRIEKGALTLSSPEVRFHMDSETHDPIDLQTKELRETNSMVEEFMLLANISVAKKIHEEFSEHALLRKHPAPPPSNYEILVKAARSRNLEIKTDTAKSLAESLDQAESPTFPYLNTLLRILATRCMMQAVYFCSGMDNDFHHYGLASPIYTHFTSPIRRYADVIVHRLLAVAIGADCTYPELTDKHKLADICKNLNFRHKMAQYAQRASVAFHTQLFFKSKGIVSEEAYILFVRKNAIVVLIPKYGLEGTVFFEEKDKPNPQLIYDDEIPSLKIEDTVFHVFDKVKVKIMLDSSNLQHQKIRMSLVEPQIPGISIPTDTSNMDLNGPKKKKMKLGK
- binding (FLAG-Drosha): no binding
